From the supplement of paper PMC10849652 come the findings set out here.

By UniProt entry, the sequences of proteins in these tests, tags left out. Where a name states a change or a piece, a line headed by the entry shows the natural chain unless it says otherwise.
UniProt P47736: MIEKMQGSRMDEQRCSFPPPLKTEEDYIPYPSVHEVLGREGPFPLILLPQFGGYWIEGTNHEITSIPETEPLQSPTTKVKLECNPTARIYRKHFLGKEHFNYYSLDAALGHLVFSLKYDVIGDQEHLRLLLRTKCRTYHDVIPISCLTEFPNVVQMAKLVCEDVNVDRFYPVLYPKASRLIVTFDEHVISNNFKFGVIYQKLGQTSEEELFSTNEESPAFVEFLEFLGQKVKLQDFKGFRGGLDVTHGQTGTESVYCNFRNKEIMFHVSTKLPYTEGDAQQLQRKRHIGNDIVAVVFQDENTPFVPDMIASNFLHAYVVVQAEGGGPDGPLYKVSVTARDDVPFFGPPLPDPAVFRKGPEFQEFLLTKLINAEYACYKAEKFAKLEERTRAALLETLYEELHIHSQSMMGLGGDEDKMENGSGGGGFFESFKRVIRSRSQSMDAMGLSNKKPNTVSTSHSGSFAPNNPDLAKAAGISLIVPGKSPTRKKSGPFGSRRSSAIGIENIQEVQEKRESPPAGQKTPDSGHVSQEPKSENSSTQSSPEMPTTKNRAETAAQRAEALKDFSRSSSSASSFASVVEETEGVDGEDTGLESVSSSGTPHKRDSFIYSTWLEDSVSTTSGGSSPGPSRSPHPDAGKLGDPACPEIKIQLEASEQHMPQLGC
UniProt Q06609, whole entry, looked up: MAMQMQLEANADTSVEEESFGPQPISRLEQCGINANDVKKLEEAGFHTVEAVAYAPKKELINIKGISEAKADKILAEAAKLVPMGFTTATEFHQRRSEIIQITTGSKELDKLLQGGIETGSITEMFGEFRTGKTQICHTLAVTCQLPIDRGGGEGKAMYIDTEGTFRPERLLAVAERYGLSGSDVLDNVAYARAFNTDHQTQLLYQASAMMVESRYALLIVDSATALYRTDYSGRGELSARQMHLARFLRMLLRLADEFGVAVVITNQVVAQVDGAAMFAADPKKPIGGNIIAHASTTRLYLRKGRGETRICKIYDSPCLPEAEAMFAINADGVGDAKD
UniProt P54727: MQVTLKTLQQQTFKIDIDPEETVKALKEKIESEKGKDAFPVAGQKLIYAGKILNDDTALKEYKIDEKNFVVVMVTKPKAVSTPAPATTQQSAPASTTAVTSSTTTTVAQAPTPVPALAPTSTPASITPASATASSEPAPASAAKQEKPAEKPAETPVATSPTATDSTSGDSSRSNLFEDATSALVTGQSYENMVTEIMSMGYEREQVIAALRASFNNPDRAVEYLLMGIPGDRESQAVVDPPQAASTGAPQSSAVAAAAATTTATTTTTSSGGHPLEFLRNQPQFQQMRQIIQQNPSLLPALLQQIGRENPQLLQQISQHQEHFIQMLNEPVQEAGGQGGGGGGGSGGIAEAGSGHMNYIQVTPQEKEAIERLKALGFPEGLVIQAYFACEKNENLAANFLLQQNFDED
UniProt P10114: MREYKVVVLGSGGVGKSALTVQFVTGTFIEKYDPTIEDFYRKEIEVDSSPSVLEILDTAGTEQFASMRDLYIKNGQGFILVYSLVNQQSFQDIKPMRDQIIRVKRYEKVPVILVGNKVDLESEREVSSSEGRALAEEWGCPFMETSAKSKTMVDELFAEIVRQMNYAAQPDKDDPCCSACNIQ
UniProt P62491: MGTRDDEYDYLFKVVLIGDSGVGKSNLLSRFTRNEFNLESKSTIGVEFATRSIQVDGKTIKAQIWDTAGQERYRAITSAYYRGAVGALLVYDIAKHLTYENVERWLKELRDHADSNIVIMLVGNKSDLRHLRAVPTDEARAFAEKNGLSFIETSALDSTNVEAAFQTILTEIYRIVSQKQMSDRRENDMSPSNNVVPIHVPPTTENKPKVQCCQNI
UniProt Q9H0R6: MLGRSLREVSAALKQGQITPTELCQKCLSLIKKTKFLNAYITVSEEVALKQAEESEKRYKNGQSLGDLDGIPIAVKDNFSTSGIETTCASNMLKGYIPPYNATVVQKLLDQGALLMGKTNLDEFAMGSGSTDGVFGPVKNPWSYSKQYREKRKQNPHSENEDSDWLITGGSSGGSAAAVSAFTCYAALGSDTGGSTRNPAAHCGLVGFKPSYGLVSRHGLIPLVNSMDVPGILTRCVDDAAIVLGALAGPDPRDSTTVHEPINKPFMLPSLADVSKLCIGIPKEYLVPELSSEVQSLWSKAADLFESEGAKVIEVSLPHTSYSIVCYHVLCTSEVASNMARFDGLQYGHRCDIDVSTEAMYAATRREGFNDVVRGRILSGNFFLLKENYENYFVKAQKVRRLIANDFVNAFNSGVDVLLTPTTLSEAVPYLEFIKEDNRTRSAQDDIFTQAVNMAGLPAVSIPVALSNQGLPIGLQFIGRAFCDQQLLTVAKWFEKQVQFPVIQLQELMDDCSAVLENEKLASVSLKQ
UniProt P62834: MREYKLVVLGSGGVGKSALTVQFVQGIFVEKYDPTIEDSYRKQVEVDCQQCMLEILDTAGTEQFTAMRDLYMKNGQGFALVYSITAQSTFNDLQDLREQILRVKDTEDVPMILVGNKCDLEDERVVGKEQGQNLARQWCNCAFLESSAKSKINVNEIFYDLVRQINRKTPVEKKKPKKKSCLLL
UniProt P61224: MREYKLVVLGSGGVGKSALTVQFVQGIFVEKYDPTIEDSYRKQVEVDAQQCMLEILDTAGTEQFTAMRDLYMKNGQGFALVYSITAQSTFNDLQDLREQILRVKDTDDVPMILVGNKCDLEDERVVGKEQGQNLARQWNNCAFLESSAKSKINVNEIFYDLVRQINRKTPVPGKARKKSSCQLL
UniProt Q9H2T7: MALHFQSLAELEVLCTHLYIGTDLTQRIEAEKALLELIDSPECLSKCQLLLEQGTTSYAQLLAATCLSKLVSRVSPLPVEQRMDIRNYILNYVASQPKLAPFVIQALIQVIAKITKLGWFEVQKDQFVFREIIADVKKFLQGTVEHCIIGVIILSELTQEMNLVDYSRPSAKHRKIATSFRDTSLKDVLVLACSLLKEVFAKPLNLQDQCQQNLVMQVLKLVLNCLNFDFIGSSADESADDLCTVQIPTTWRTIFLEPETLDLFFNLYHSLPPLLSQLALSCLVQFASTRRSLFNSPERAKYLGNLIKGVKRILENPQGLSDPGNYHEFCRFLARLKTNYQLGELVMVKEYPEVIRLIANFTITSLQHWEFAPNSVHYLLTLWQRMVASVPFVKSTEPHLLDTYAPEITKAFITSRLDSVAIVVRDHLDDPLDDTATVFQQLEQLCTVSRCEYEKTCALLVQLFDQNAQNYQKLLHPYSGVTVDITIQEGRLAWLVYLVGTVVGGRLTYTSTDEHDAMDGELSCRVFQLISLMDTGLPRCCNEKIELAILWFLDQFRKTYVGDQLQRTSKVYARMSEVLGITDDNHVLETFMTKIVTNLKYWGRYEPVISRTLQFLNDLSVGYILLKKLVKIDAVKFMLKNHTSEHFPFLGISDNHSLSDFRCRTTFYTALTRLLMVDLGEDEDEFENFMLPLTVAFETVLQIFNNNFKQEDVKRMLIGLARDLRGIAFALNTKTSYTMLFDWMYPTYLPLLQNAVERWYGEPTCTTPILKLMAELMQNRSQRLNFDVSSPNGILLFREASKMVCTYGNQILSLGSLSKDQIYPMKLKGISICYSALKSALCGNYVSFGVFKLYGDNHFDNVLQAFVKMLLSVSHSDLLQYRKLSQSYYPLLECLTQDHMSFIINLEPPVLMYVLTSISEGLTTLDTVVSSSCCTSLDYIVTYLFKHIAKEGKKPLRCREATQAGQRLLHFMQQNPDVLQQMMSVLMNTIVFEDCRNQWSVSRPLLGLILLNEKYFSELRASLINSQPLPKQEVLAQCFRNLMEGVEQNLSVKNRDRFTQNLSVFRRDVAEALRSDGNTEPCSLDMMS
UniProt O60671: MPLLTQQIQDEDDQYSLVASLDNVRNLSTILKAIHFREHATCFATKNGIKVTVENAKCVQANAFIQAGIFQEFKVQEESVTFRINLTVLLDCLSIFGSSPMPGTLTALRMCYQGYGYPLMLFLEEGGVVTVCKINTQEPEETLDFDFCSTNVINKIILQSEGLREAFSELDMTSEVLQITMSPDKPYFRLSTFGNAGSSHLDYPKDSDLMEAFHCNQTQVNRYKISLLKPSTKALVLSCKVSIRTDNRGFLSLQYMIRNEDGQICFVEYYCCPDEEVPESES
UniProt Q9UJ41, whole entry, looked up: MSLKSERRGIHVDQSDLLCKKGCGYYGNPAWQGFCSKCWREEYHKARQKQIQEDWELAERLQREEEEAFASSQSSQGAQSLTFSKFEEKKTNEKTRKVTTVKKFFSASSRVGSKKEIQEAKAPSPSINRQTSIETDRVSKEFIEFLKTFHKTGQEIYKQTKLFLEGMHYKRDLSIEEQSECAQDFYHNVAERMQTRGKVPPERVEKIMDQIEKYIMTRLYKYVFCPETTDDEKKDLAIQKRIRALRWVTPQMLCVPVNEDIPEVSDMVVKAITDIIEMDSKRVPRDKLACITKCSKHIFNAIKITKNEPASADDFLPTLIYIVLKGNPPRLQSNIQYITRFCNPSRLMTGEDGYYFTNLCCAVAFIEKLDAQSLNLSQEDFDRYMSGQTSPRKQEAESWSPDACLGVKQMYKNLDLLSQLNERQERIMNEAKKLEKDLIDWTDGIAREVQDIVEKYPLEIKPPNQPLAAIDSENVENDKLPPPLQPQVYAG
UniProt O60518: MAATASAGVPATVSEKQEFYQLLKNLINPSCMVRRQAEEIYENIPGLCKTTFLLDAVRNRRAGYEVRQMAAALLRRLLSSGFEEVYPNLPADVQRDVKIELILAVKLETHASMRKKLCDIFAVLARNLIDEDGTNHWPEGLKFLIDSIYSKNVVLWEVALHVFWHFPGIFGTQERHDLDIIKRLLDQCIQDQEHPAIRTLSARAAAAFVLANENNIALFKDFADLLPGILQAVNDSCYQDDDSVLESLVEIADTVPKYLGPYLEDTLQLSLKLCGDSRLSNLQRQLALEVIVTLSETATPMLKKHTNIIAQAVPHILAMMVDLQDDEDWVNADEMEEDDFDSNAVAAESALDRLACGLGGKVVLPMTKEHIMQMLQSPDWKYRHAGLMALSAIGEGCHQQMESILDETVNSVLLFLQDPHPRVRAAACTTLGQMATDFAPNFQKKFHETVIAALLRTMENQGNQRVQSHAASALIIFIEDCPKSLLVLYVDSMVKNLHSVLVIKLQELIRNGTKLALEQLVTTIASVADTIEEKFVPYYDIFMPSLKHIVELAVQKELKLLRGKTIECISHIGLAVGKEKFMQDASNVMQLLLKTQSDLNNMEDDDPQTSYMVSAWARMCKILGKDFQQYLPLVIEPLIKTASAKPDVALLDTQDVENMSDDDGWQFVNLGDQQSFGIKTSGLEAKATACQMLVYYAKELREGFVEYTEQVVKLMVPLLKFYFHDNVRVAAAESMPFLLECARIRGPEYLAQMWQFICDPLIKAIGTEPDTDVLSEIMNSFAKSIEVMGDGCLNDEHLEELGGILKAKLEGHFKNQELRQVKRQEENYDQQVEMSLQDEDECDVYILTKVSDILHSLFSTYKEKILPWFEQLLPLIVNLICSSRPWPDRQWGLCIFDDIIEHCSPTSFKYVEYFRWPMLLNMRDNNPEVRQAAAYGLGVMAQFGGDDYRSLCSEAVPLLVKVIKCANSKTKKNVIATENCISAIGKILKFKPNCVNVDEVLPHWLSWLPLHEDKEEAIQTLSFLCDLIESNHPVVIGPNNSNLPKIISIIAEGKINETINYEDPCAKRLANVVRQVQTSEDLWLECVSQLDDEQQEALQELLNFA
UniProt P61020: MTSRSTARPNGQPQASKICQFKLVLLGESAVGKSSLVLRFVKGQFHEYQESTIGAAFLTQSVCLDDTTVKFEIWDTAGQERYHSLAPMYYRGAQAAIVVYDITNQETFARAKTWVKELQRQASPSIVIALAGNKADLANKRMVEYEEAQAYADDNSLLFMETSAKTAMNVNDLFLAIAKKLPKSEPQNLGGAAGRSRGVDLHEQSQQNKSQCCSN
UniProt Q53H96: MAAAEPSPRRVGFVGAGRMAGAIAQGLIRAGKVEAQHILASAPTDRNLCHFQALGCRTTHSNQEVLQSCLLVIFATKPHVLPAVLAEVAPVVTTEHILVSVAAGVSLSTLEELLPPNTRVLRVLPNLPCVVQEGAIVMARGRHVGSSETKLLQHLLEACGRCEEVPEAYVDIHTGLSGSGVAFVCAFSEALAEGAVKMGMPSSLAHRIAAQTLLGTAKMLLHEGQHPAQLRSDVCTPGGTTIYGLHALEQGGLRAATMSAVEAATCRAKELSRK
UniProt P61225: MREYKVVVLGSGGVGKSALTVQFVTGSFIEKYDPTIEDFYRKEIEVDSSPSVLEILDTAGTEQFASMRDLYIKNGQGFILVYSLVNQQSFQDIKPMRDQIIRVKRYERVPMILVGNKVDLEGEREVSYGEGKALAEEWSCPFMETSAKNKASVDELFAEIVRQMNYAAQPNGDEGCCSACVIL
UniProt P20340: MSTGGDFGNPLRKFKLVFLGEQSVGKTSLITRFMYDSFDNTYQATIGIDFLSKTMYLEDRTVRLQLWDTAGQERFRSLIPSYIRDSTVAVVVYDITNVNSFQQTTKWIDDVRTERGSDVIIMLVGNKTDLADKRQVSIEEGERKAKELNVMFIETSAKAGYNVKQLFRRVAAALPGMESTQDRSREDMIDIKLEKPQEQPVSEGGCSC

This is one part of the list.

Compound in one assay: C1CCN(C1)C(=O)NC2=CC=CC(=C2)NC3=NC=C(C(=N3)NCCC4=CN=CN4)Br
As to the kind of experiment: log2 fold change, soluble protein after heating vs DMSO (PISA); higher = thermal stabilisation; K562 lysate, 10 uM; active = over 0.2 and 3.5 SD of the protein, either way, in both replicates (recomputed). The gist of the method:
(§1)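 Values give the log-two fold change in thermal stability against solvent controls, from duplicates. Crude K562 extract at 1 mg/mL protein, made by dounce homogenisation in PBS pH 7.4 with 1 mM MgCl2, was treated with 10 μM compound for 30 min. After 3 min heating across 48°C-58°C, aliquots were pooled, adjusted to 0.5% NP-40 at 4°C and centrifuged at 21,000xg for 90 min. The supernatant was measured by TMTpro 16plex LC-MS/MS with channel sums equalised.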
Consider RAP1GAP isoform 4 (UniProt P47736), for which the log2 fold change was inactive: 0.02.
As to RAD51 (UniProt Q06609), the log2 fold change was inactive: -0.007.
Regarding RAD23B (UniProt P54727), the log2 fold change is inactive: 0.016.
On the same count and under the same terms, next, RAP2A (UniProt P10114): inactive: -0.009; RAB11A (UniProt P62491): inactive: 0.047.
The same measure, in the same setting: the result for QRSL1 (UniProt Q9H0R6) reads inactive: -0.017.
Same read-out and setting: the result for RAP1A (UniProt P62834) reads inactive: 0.01; that for RAP1B (UniProt P61224), inactive: -0.033.
For RAPGEF2, A0A2R8YGD3, the log2 fold change was inactive: 0.007.
For the target RANBP17 (UniProt Q9H2T7), the log2 fold change was inactive: 0.083.

Compound in the next assay: C1CN(CCC1(CC2=CC=C(C=C2)Cl)N)C3=NC=NC4=C3C=CN4
Described as above. The gist of the method: as §1
In the case of RACGAP1 (UniProt Q9H0H5), the log2 fold change was inactive: 0.025.
On the same count and under the same terms, the result for RAD1 (UniProt O60671) reads inactive: 0.058; that for RAC2 (UniProt P15153), inactive: -0.036.
Same read-out and setting: next, RABEPK (UniProt Q7Z6M1): inactive: -0.032; RANBP9 (UniProt Q96S59): inactive: -0.005.
On the same count and under the same terms, the result for RAD51C (UniProt O43502) reads inactive: 0.02.
Turning to RABGEF1 isoform 3 (UniProt Q9UJ41), the log2 fold change was inactive: -0.019.
Consider RANBP6 (UniProt O60518), for which the log2 fold change was inactive: -0.019.
RABEP1 (UniProt Q15276): the log2 fold change was inactive: -0.005.
As for RALGAPA1 isoform 6 (UniProt Q6GYQ0), the log2 fold change was inactive: 0.031.
As to RABAC1 (UniProt Q9UI14), the log2 fold change was inactive: -0.023.
Still for that read-out and setting: the result for RAB5B (UniProt P61020) reads inactive: 0.015; that for RAB6B (UniProt Q9NRW1), inactive: 0.032.
Same read-out and setting: next, RAB5A (UniProt P20339): inactive: 0.016; RAB24 (UniProt Q969Q5): inactive: 0.017.
As to PYCR3 (UniProt Q53H96), the log2 fold change is inactive: -0.009.
With RAB10 (UniProt P61026), the log2 fold change was inactive: 0.009.
Consider RAN (UniProt P62826), for which the log2 fold change was inactive: 0.001.
Take RAP2B (UniProt P61225): the log2 fold change was inactive: 0.068.
On the same count and under the same terms, the result for RAB8B (UniProt Q92930) reads inactive: -0.006; that for RAB6A isoform 4 (UniProt P20340), inactive: -0.002.
For the target RAB20 (UniProt Q9NX57), the log2 fold change was inactive: 0.048.
On the same count and under the same terms, the result for RAP2C (UniProt Q9Y3L5) reads inactive: 0.019; that for RAP1GAP isoform 4 (UniProt P47736), inactive: 0.056.
The same measure, in the same setting: next, RAD51 (UniProt Q06609): inactive: 0.032; RAD23B (UniProt P54727): inactive: 0.01.
Still for that read-out and setting: the result for RAP2A (UniProt P10114) reads inactive: 0.061; that for RAB11A (UniProt P62491), inactive: 0.033; that for QRSL1 (UniProt Q9H0R6), inactive: 0.022.
Turning to RAP1A (UniProt P62834), the log2 fold change is inactive: 0.007.
With RAP1B (UniProt P61224), the log2 fold change is inactive: -0.004.
With RAPGEF2, A0A2R8YGD3, the log2 fold change is inactive: -0.085.
Take RANBP17 (UniProt Q9H2T7): the log2 fold change was inactive: 0.035.

Compound in a further assay: C1COCCN1CCN2C3=CC=CC=C3N=C2NC(=O)C4=CC(=CC=C4)[N+](=O)[O-] [IRAK-1-4 Inhibitor I]
The description is as above. A digest of the protocol:
as §1
As for RACGAP1 (UniProt Q9H0H5), the log2 fold change is inactive: -0.005.
Same read-out and setting: the result for RAD1 (UniProt O60671) reads inactive: -0.003.
Still for that read-out and setting: next, RAC2 (UniProt P15153): inactive: 0.024; RABEPK (UniProt Q7Z6M1): inactive: 0.014.
The same measure, in the same setting: the result for RANBP9 (UniProt Q96S59) reads inactive: 0; that for RAD51C (UniProt O43502), inactive: -0.051.
In the case of RABGEF1 isoform 3 (UniProt Q9UJ41), the log2 fold change is inactive: 0.006.
For the target RANBP6 (UniProt O60518), the log2 fold change is inactive: 0.04.
On the same count and under the same terms, the result for RABEP1 (UniProt Q15276) reads inactive: 0.004; that for RALGAPA1 isoform 6 (UniProt Q6GYQ0), inactive: 0.004.
The same measure, in the same setting: next, RABAC1 (UniProt Q9UI14): inactive: 0.106.
For RAB5B (UniProt P61020), the log2 fold change is inactive: 0.004.
For the target RAB6B (UniProt Q9NRW1), the log2 fold change is inactive: 0.047.
In the case of RAB5A (UniProt P20339), the log2 fold change was inactive: -0.016.
In the case of RAB24 (UniProt Q969Q5), the log2 fold change was inactive: -0.025.
Take PYCR3 (UniProt Q53H96): the log2 fold change is inactive: -0.016.
The same measure, in the same setting: next, RAB10 (UniProt P61026): inactive: 0.01; RAN (UniProt P62826): inactive: 0.006; RAP2B (UniProt P61225): inactive: 0.
With RAB8B (UniProt Q92930), the log2 fold change was inactive: 0.035.
For RAB6A isoform 4 (UniProt P20340), the log2 fold change is inactive: 0.018.
Same read-out and setting: the result for RAB20 (UniProt Q9NX57) reads inactive: 0.076; that for RAP2C (UniProt Q9Y3L5), inactive: -0.021.
Still for that read-out and setting: the result for RAP1GAP isoform 4 (UniProt P47736) reads inactive: 0.041.
Still for that read-out and setting: next, RAD51 (UniProt Q06609): inactive: -0.01; RAD23B (UniProt P54727): inactive: 0; RAP2A (UniProt P10114): inactive: 0.01.
As for RAB11A (UniProt P62491), the log2 fold change is inactive: 0.03.
Same read-out and setting: the result for QRSL1 (UniProt Q9H0R6) reads inactive: -0.01.
On the same count and under the same terms, next, RAP1A (UniProt P62834): inactive: 0.026; RAP1B (UniProt P61224): inactive: 0.014.
Still for that read-out and setting: next, RAPGEF2, A0A2R8YGD3: inactive: 0.007; RANBP17 (UniProt Q9H2T7): inactive: 0.077.
